Experimental data from US7718353B2, “Proteins, sensors, and methods of characterizing analytes using the same” (University of Maryland Baltimore County, priority 2003, dated 2010).

Columns and labels:
[1] = Frequency-domain intensity decay and modulation of Ru-GlnBP-Acr in glutamine; details: for fAcr / fRu: fractional intensity
[2] = Detection limits of GlnBP sensor (Signal/Noise=3); details: for LDL/UDL / Lower Detection Limit (LDL) / Upper Detection Limit (UDL): dye acrylodan

B1: Ru-GlnBP-Acr: S179C GlnBP labeled at the cysteine with acrylodan and at the N-terminal with ruthenium bis-(2,2′-bipyridyl)-1,10-phenanthroline-9-isothiocyanate (protein, UniProt P0AEQ3 23-248, looked up, variant S179C)
Glutamine-binding periplasmic …: ADKKLVVATDTAFVPFEFKQGDKYVGFDVDLWAAIAKELKLDYELKPMDFSGIIPALQTKNVDLALAGITITDERKKAIDFSDGYYKSGLLVMVKANNNDVKSVKDLDGKVVAVKSGTGSVDYAKANIKTKDLRQFPNIDNAYMELGTNRADAVLHDTPNILYFIKTAGNGQFKAVGDCLEAQQYGIAFPKGSDELRDKVNGALKTLRENGTYNEIYKKWFGTEPK
modifications: acrylodan; N-terminal ruthenium complex label
notes: S179C GlnBP labeled at the cysteine with acrylodan and at the N-terminal with ruthenium bis-(2,2′-bipyridyl)-1,10-phenanthroline-9-isothiocyanate
fAcr ([1]; glutamine 0.0 μM): 0.510 | fRu ([1]; glutamine 0.0 μM): 0.490 | fAcr ([1]; glutamine 0.1 μM): 0.476 | fRu ([1]; glutamine 0.1 μM): 0.539 | fAcr ([1]; glutamine 0.2 μM): 0.415 | fRu ([1]; glutamine 0.2 μM): 0.585 | fAcr ([1]; glutamine 0.4 μM): 0.374 | fRu ([1]; glutamine 0.4 μM): 0.626 | fAcr ([1]; glutamine 0.8 μM): 0.347 | fRu ([1]; glutamine 0.8 μM): 0.653 | fAcr ([1]; glutamine 1.6 μM): 0.331 | fRu ([1]; glutamine 1.6 μM): 0.669 | lifetime of Ru ([1]; practically the same with the binding of glutamine (0-1.6 μM)): about 685 ns

B2: GlnBP-Acr: S179C variant of E. coli glutamine-binding protein labeled with acrylodan at cysteine 179 (protein, UniProt P0AEQ3 23-248, looked up, variant S179C)
Glutamine-binding periplasmic …: ADKKLVVATDTAFVPFEFKQGDKYVGFDVDLWAAIAKELKLDYELKPMDFSGIIPALQTKNVDLALAGITITDERKKAIDFSDGYYKSGLLVMVKANNNDVKSVKDLDGKVVAVKSGTGSVDYAKANIKTKDLRQFPNIDNAYMELGTNRADAVLHDTPNILYFIKTAGNGQFKAVGDCLEAQQYGIAFPKGSDELRDKVNGALKTLRENGTYNEIYKKWFGTEPK
modifications: acrylodan label at C179
lower detection limit of GlnBP relative to that of GBP (times lower) ([2]; comparison of Table 5 values): about 10 times | LDL/UDL ([2]; protein conc. 0.87 μM): 107 | Lower Detection Limit (LDL) ([2]; protein conc. 0.87 μM): 0.03 µM | Upper Detection Limit (UDL) ([2]; protein conc. 0.87 μM): 3.2 µM | LDL/UDL ([2]; protein conc. 3.54 μM): 229 | Lower Detection Limit (LDL) ([2]; protein conc. 3.54 μM): 0.07 µM | Upper Detection Limit (UDL) ([2]; protein conc. 3.54 μM): 16 µM | lower detection limit ([2]; range over protein conc. 0.87-3.54 μM (Table 5)): 0.03 to 0.07 µM
